These are yes or no findings as the source states them, for the method shown. In cells and extracts the contact can be indirect. Some entries that bind do so weakly or less than the wild type.
Key:
[1] = target: GST-Gankyrin fusion protein (human) (UniProt O75832); experiment: pull-down; GST-Gankyrin (and GST) immobilized on Glutathione-Sepharose; in vitro translated 35S-labeled MDM2 added, 4 °C for an hour; eluted with 5 mM reduced glutathione, 10 mM Tris-HCl pH 8.0, 150 mM NaCl; only the target purified
HA-MDM2 (human) = HA-MDM2 (human) (UniProt Q00987); experiment: co-IP; lysate of MDM2 KO HEK293T cells co-transfected with HA-MDM2 and Flag-Gankyrin plasmids; agarose-conjugated anti-HA and anti-Flag antibodies, overnight at 4 °C; detected by Western blot

Chains of the proteins cited; added tags and fusions are not shown. Lines headed by an entry give the natural chain unless they say otherwise; changes in a name come on top.
UniProt O75832: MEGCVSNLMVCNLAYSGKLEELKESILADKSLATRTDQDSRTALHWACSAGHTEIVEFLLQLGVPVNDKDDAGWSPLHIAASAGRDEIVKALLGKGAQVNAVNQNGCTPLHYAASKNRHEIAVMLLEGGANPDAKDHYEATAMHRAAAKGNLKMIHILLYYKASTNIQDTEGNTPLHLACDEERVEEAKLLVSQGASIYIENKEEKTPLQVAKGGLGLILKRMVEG
UniProt Q00987: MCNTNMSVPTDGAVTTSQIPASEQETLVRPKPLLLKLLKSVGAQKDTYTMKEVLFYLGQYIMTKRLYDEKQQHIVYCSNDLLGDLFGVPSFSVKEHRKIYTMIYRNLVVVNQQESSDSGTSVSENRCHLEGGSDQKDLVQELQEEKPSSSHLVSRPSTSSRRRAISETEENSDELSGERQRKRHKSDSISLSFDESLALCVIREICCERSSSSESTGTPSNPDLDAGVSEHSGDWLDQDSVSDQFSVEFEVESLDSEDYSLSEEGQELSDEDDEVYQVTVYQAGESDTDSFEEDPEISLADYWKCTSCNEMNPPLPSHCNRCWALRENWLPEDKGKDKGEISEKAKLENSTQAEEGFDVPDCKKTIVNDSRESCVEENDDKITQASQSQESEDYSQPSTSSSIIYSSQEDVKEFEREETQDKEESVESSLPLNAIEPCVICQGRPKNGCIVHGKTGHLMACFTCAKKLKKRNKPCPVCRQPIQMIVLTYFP

Substance	binding [1]	binding (HA-MDM2 (human))
35S-labeled MDM2 protein (from UniProt Q00987 1-491)	binds	–
Flag-Gankyrin (from UniProt O75832-1 1-226)	–	binds
